# This is one part of the list. These are raw signals, not scaled to a control.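 First-pass screen: polymyxin B was added at a level that permeabilizes the Salmonella outer membrane while sparing the inner membrane. DMSO wells, with and without polymyxin B, defined maximum growth. Because plates differed from one another, each plate's data were ranked separately and the compounds with the lowest OD600 were carried forward as hits.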
# System: Salmonella enterica serovar Typhimurium SL1344
# Assay: bacterial growth OD600 after 18 h with compound and polymyxin B; higher = more bacterial growth (less inhibition)
# Settings: 50 µM, Mueller-Hinton broth
Compound,bacterial growth OD600 (polymyxin B 1 µg/mL),bacterial growth OD600 (polymyxin B 0.75 µg/mL)
C[C@@H]1CN(C2(C(=O)NCCOc3cccnc3)Cc3ccccc3C2)C[C@H](C)O1,1.13,–
CSCC(=O)NC1CC(=O)N(CCc2ccccc2)C1 (configuration not stated),1.05,–
COCCN1C(=O)NC(Cc2ccc(F)cc2)(C2CCN(C(=O)C#Cc3ccccc3)CC2)C1=O (configuration not stated),–,0.734
COc1ccc(CC2(CCC(=O)NCCn3ccc4ccccc43)CCC(=O)N2)c2ccccc12 (configuration not stated),–,0.854
Fc1cccc(CN2CCC(C3CCN(Cc4ncc[nH]4)C3)CC2)c1F (configuration not stated),–,0.806
CCn1c(-c2ccccc2F)nc2cc(C(=O)N3CCSCC3)cc(NC(C)=O)c21,–,0.848
OCC#Cc1ccc(CN2CC[C@@H](N3CCN(c4ccccc4F)CC3)[C@H](O)C2)s1,–,0.758
CC(=O)Nc1ccc(CN2CCOc3ccc(CN4CCN(c5ccc(F)cc5)CC4)cc3C2)cc1,–,0.772
Cc1cc(C)n(Cc2cc(C(=O)N(C)Cc3ccncc3C)n[nH]2)n1,1.06,–
Cc1cc(-c2cc(F)cc3c2OC(CNC(=O)C2(C)CC2)C3)ccc1F (configuration not stated),–,0.002
c1ccc(CN2CCc3[nH]nc(-c4ccc5c(c4)OCO5)c3C2)nc1,–,0.891
CCOC(=O)C1(Cc2ccc(Cl)cc2)CCN(CCO)CC1,0.959,–
COc1cc(OC)cc(C(=O)NCC2CCCN(C3CCSCC3)C2)c1 (configuration not stated),0.857,–
O=C1CC(NCC2CC2)CN1CCc1cccc(Cl)c1 (configuration not stated),0.9,–
CC(C)Oc1cccc(C(=O)C2CCCN(C(=O)c3ccc4c(c3)OCO4)C2)c1 (configuration not stated),0.739,–
CC1(C(=O)N2CCCC2C(=O)Nc2ccccc2Oc2cccnc2)CC1 (configuration not stated),0.763,–

# Single entries from above:
# Value of Cc1cc(C)n(Cc2cc(C(=O)N(C)Cc3ccncc3C)n[nH]2)n1 under bacterial growth OD600 (polymyxin B 1 µg/mL): 1.06
# Value of CC(=O)Nc1ccc(CN2CCOc3ccc(CN4CCN(c5ccc(F)cc5)CC4)cc3C2)cc1 under bacterial growth OD600 (polymyxin B 0.75 µg/mL): 0.772

# Carrying on.

Compound,bacterial growth OD600 (polymyxin B 1 µg/mL),bacterial growth OD600 (polymyxin B 0.75 µg/mL)
Cc1cc(C)n(-c2ccc(NC(=O)C3CCN(C(=O)c4ocnc4C)CC3)cc2)n1,0.924,–
Cc1nc(N2CCC(NCc3ccc(-n4cccn4)cc3)CC2)nc2ccc(F)cc12,–,0.476
COc1ccc(C(CC(=O)N(C)CC(C)C)c2ccccc2)cc1 (configuration not stated),0.604,–
COc1ccc(C(=O)NC2CCCCCCC2)cc1OC1CCN(C(C)=O)CC1,1.21,–
COC(=O)C1CCCCN1C(=O)c1c(OC)cc(=O)n2c1CCN(Cc1cc3ccccc3o1)CC2 (configuration not stated),–,0.8
CCOC(=O)CC1COCCN1Cc1c[nH]nc1-c1cc(OC)c(OC)c(OC)c1 (configuration not stated),0.821,–
CCOc1ccccc1CN1CCN(Cc2ccccc2F)CC1CCO (configuration not stated),0.902,–
CN(Cc1nc(-c2cccc(Cl)c2)no1)C1CCCCC1,0.486,–
COc1ccc(/C=C/C(=O)NC2CCCN(Cc3ccccn3)C2)cc1OC (configuration not stated),0.956,–
CC1(C)CC(CNCc2cccnc2Oc2ccc(F)cc2F)CCO1 (configuration not stated),0.917,–
COC(=O)c1ccc(C(=O)NCCN2Cc3cc(C)ccc3OC(C)C2)cc1 (configuration not stated),–,0.777
CC(C)c1ccc(NC2CCCN(C(=O)CCCn3cncn3)C2)cc1 (configuration not stated),0.827,–
O=C(c1csnn1)N1CCC(C2CCN(Cc3cccc(F)c3F)CC2)C1 (configuration not stated),–,0.814
COc1ccc(CCCN2C(=O)O[C@@H]3CN(Cc4cccc(C)n4)C[C@@H]32)cc1,0.992,–
CCN1CCN(C2(C(=O)NCc3ccccc3C)Cc3ccccc3C2)CC1,–,0.794
COC(=O)c1c(OCCCc2ccccc2)cc(=O)n2c1CCN(C(=O)c1ccccc1F)CC2,–,0.775

# From the supplement of paper PMC12889115
